No constants are given. Whether binding was seen depends on the method and setting. Binding seen in cells or lysates may run through a third protein. Some binding calls cover weakened binding; strength is not graded here. Where a sequence is shown, tags or fusion partners need not be part of it.
Molecular target: Strep-tagged STING (full-length), Q86WV6
Assay: co-IP; HEK293T co-transfected with Strep-tagged STING, HA-tagged IRF3 and Flag-tagged TBK1 for 18 h, then DMSO or CA (20 µM) for 6 h; lysates precipitated with Strep affinity beads for 4 h, western blot
Conditions: remark: other sources report otherwise

Row | Binder | binding
1 | Flag-tagged TANK-binding kinase 1 (TBK1), Q9UHD2 1-729 (enzyme) MQSTSNHLWLLSDILGQGATANVFRGRHKKTGDLFAIKVFNNISFLRPVDVQMREFEVLKKLNHKNIVKLFAIEEETTTRHKVLIMEFCPCGSLYTVLEEPSNAYGLPESEFLIVLRDVVGGMNHLRENGIVHRDIKPGNIMRVIGEDGQSVYKLTDFGAARELEDDEQFVSLYGTEEYLHPDMYERAVLRKDHQKKYGATVDLWSIGVTFYHAATGSLPFRPFEGPRRNKEVMYKIITGKPSGAISGVQKAENGPIDWSGDMPVSCSLSRGLQVLLTPVLANILEADQEKCWGFDQFFAETSDILHRMVIHVFSLQQMTAHKIYIHSYNTATIFHELVYKQTKIISSNQELIYEGRRLVLEPGRLAQHFPKTTEENPIFVVSREPLNTIGLIYEKISLPKVHPRYDLDGDASMAKAITGVVCYACRIASTLLLYQELMRKGIRWLIELIKDDYNETVHKKTEVVITLDFCIRNIEKTVKVYEKLMKINLEAAELGEISDIHTKLLRLSSSQGTIETSLQDIDSRLSPGGSLADAWAHQEGTHPKDRNVEKLQVLLNCMTEIYYQFKKDKAERRLAYNEEQIHKFDKQKLYYHATKAMTHFTDECVKKYEAFLNKSEEWIRKMLHLRKQLLSLTNQCFDIEEEVSKYQEYTNELQETLPQKMFTASSGIKHTMTPIYPSSNTLVEMTLGMKKLKEEMEGVVKELAENNHILERFGSLTMDGGLRNVDCL | binds
2 | HA-tagged interferon regulatory factor 3 (IRF3), Q14653 1-427 (protein) MGTPKPRILPWLVSQLDLGQLEGVAWVNKSRTRFRIPWKHGLRQDAQQEDFGIFQAWAEATGAYVPGRDKPDLPTWKRNFRSALNRKEGLRLAEDRSKDPHDPHKIYEFVNSGVGDFSQPDTSPDTNGGGSTSDTQEDILDELLGNMVLAPLPDPGPPSLAVAPEPCPQPLRSPSLDNPTPFPNLGPSENPLKRLLVPGEEWEFEVTAFYRGRQVFQQTISCPEGLRLVGSEVGDRTLPGWPVTLPDPGMSLTDRGVMSYVRHVLSCLGGGLALWRAGQWLWAQRLGHCHTYWAVSEELLPNSGHGPDGEVPKDKEGGVFDLGPFIVDLITFTEGSGRSPRYALWFCVGESWPQDQPWTKRLVMVKVVPTCLRALVEMARVGGASSLENTVDLHISNSHPLSLTSDQYKAYLQDLVEGMDFQGPGES | binds

Reference: paper PMC11984877, “Carnosic Acid Directly Targets STING C‐Terminal Tail to Improve STING‐Mediated Inflammatory Diseases” (Advanced Science, 2025)
